# Primary screen of a compound library

Sequences of proteins named here, by UniProt entry; tags and fusion partners are left off.
UniProt P9WFT3, whole entry: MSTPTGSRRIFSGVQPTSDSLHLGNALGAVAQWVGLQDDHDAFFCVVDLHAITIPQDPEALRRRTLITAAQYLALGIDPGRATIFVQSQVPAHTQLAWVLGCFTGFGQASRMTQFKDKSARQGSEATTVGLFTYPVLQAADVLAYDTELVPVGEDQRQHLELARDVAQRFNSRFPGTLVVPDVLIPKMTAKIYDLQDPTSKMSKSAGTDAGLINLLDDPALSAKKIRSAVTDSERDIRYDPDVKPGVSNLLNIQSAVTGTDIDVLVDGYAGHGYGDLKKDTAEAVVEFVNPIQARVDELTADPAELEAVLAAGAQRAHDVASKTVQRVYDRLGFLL
UniProt P9WNZ1, whole entry: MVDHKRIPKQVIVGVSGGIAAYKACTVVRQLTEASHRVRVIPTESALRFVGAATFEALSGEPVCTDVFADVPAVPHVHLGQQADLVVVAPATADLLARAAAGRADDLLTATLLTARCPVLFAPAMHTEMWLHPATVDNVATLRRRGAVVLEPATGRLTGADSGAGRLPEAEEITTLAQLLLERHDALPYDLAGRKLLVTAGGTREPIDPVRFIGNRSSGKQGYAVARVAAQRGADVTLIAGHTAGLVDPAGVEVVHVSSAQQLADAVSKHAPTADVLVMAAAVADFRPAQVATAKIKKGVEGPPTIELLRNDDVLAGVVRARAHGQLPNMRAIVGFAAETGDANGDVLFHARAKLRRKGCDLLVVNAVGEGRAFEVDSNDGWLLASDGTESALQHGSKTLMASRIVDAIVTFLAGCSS
UniProt P9WPC5, whole entry: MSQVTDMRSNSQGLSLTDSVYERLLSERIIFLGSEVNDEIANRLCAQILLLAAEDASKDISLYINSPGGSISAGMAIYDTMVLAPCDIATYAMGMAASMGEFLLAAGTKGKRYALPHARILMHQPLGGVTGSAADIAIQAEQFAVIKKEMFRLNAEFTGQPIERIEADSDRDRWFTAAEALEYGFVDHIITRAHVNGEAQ
UniProt P9WPC3, whole entry partner: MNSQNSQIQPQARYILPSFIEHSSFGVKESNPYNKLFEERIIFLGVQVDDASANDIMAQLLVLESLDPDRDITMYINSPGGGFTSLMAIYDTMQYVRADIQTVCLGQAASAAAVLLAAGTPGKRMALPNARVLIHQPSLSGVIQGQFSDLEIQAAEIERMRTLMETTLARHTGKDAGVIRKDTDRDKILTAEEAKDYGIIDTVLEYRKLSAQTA

Source: ChEMBL document CHEMBL3988442, “University of Dundee, Small-Polar-MMV Screening Library” (2021).

A: 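Tryptophan-tRNA ligase, Mycobacterium tuberculosis (UniProt P9WFT3). Enzyme assay of tryptophanyl-tRNA synthetase; the read-out is not stated. Tested at 10 µM. Higher most likely means stronger inhibition; the record gives no direction and few retests gave an IC50. About 65,000 compounds were tested under these conditions; 0.098% (about 64) showed 50% or more at least once.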
B: 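Coenzyme A biosynthesis protein CoaBC, Mycobacterium tuberculosis (UniProt P9WNZ1). Enzyme assay of CoaBC with a phosphate dye (Biomol Green) read at 650 nm. Tested at 30 µM. Higher reads as stronger inhibition, judged from the few compounds that gave an IC50. Most strong results did not repeat in a second test. Of about 67,000 compounds tested this way, about 40 (0.06%) reached 50% or more in at least one test.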
C: 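ClpP1P2, Mycobacterium tuberculosis (UniProt P9WPC5 and UniProt P9WPC3). Protease assay of ClpP1P2, read by the AMC dye that it sets free. Tested at 50 µM. Higher reads as stronger inhibition, judged from the few compounds that gave an IC50. Most other retested compounds had strongly negative values. Of about 69,000 compounds tested this way, about 10 (0.015%) reached 50% or more in at least one test.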

Values are the deposited “Percent Effect”, in %. How 0% and 100% were set is not recorded. Most values in the screen are low, and negative values occur. This is an unselected part of the compounds tested. A dash means the value is not listed here; it may have been measured.

Compound	A	B	C
Cc1cnn(CC(=O)NCC2CCN(c3cc(Cl)ccc3C)C2)c1 (stereo not shown)	-3.342	0	-16.87
COc1cc(C(=O)N2CCC(Nc3cccnc3)CC2)ccc1C	0.7656	14.38	-3.574
CCCc1ccc(CN2CCC3(CCC(=O)N(C)CC3)CC2)o1	1.069	14.12	7.545
CCCn1nc(C)c(CNC(=O)C2COc3ccc(OC)cc3C2)c1C (stereo not shown)	1.505	-4.878	-22.94
Cc1cnn(CC2CCCCN2Cc2c(C)noc2C)c1 (stereo not shown)	-0.416	1.023	-35.79
CCC(=O)Nc1ccc2c(ccn2CCOC)c1	1.979	9.895	-15.87
CC(=O)N(Cc1noc(C)n1)C1CCN(Cc2cnc(C)s2)C1 (stereo not shown)	-5.643	2.35	-11.9
CC(=O)c1c(F)cccc1N1CCC(C(N)=O)CC1	-2.828	4	-2.392
COCCCOc1ccc(C(=O)N(C)Cc2cccc(O)c2)cn1	1.955	-4.132	1.784
CCc1ncc(CN2CCN(c3cc(NC4CC4)nc(N)n3)CC2)cn1	-0.4706	5.34	-3.095
N#CC1(NC(=O)c2ccc(F)c(Br)c2)CCSC1 (stereo not shown)	7.348	3.676	-8.967
O=C(Nc1ccc(F)cc1)C1CNCCN1C(=O)CCc1cccnc1 (stereo not shown)	1.452	-0.7426	-3.35
CCN1C(=O)CCC12CCCN(CCc1ccccc1)C2 (stereo not shown)	11.77	4.762	3.463
Cc1nn(C)c(C)c1C1COCCN1C(=O)NC1CC1 (stereo not shown)	5.501	5.037	-10.17
Cn1ncc(-c2cc(-c3cccc(O)c3)nc(N)c2C#N)c1C1CC1	9.02	2.155	-25.67
CC(C)N1CCC(c2ccnc3c(C(=O)N4CCOCC4)ncn23)CC1	-0.6783	-	-8.644
Cc1oc(C(=O)O)cc1S(=O)(=O)Nc1cc(Br)ccc1Cl	-6.329	3.742	20.92
CN(C)c1nc2c(c(N3CCC4(CC3)CNC(=O)C4)n1)CCCC2	2.323	1.684	-0.9887
O=C(NCC[S+]([O-])c1ccccc1)NCC(F)(F)F (stereo not shown)	-7.927	4.781	-8.169
COc1ccc(C(C)NCc2c[nH]nc2C)cc1Br (stereo not shown)	1.854	1.098	-1.604
CCCS(=O)(=O)N1CCC(NC(=O)c2ccc(C)s2)CC1	3.548	-2.893	16.24
Cc1cc(C(=O)CN2CCN(c3nccs3)CC2)c(C)n1C1CC1	-5.235	-3.302	18.39
O=C(c1coc(-c2ccccc2)n1)N1CCCC1	-1.727	-1.104	-5.51
Cc1nc(C2CCCN(C(=O)c3csc(C)n3)C2)no1 (stereo not shown)	-3.792	0	-3.863
COc1ccc2oc(C(C)NC(=O)NCC(C)(C)C(N)=O)c(C)c2c1 (stereo not shown)	-0.9804	-0.7634	-9.355
CCSCCC(C)NC(=O)Nc1cccn(C)c1=O (stereo not shown)	-2.414	3.571	1.782
CCc1csc(C2CCCN(C(=O)c3ncccn3)C2)n1 (stereo not shown)	0	-1.419	-13.59
O=C(NCc1cccnc1)c1nc2c(s1)CCCN2C(=O)C1CC1	-	-1.485	-27.97
C1CCC(NCCN2CCOCC2)C1	10	4.831	-3.481
CN(C)C(=O)c1nc(-c2ccc(S(C)(=O)=O)cc2)c2ccccn12	0.2593	0.5263	-4329
Cc1ccc(N2CC3(COCCN(Cc4nccs4)C3)OCC2=O)s1 (stereo not shown)	-2.536	4.689	-8.992
Cn1ccc(CN2CCCC23CCN(Cc2cccc(F)c2)CC3)n1	-	0.9901	-12.91
COC(=O)CCNC(=O)c1ccc(OCc2ccccc2)nc1	-5.972	5.952	-15.61
COc1ccc(CN2C[C@@H]3OCCN(CCN4CCCC4)[C@@H]3C2)cc1	-1.91	-37.93	8.755
CC(C)C(=O)NC1CCN(c2cccc(OC(F)(F)F)c2)C1=O (stereo not shown)	3.114	7.025	4.53
O=C(NCCS(=O)(=O)N1CCN(c2ncccn2)CC1)C1CCCC1	-2.592	3.38	5.979
Cc1csc(CNCC2CCCN(C(=O)OC(C)(C)C)C2)n1 (stereo not shown)	-2.283	4.808	-1.238
CNc1cncc(C2CCCN2Cc2ccccn2)n1 (stereo not shown)	0.7525	2.5	-0.9051
CNC(=O)C1(c2cnccn2)CCCN1C(=O)c1ccccn1 (stereo not shown)	-	5.637	2.589
O=C1CC2(CCN(CC3CC3)C2)CN1c1cccnc1 (stereo not shown)	-0.8382	2.203	0.7946
CCCN(CCC)c1ncc(S(=O)(=O)c2ccc(C)cc2)c(N)n1	-3.541	2.123	0.5082
O=c1[nH]c(-c2ccc(Cl)cc2)nc2c1CCNC2	1.308	-10.49	2.691
CCc1nc(C2CCCN(C(=O)C(C)(C)NS(C)(=O)=O)C2)no1 (stereo not shown)	0.2508	2.611	-34.01
CC(C)CC(=O)NS(=O)(=O)c1ccc(C#N)cc1C(F)(F)F	-3.625	18.64	-11.38
CCC(O)CN1CCN(C(=O)C2(c3ccc(C)c(OC)c3)CC2)CC1 (stereo not shown)	-3.866	-3.182	-7.518
Cc1ncoc1C(=O)N1C[C@H]2CCC[C@@]2(COCc2cccnc2)C1	1.591	-3.185	3.835
Cc1c(S(=O)(=O)NCC(C)Cn2cc(Cl)cn2)cnn1C (stereo not shown)	2.292	1.786	-5.681
N#Cc1ccccc1C(=O)N1C[C@H]2CC[C@@H]1CN(c1ncccn1)C2	-2.971	-1.327	12.37
COC(=O)N1CCC(NC(=O)Cn2cc(C)c3ccccc32)CC1	-0.6463	10.06	-5.878
COCc1ccc(CNc2cnn(C(C)(C)C)c(=O)c2Cl)cc1	0.09139	-1.935	-8.169
Cc1sc2nc(C(F)(F)F)nc(N3CCN(S(C)(=O)=O)CC3)c2c1C	-4.909	-6.522	7.536
O=C(NCC(F)(F)F)C(c1cccnc1)N1CCOCC1 (stereo not shown)	-5.51	0.3628	-8.083
CCNC(=O)[C@@H]1CCCN1C1(C(=O)NC)CCC1	-1.13	-13.32	-6.235
Cc1nc(CN(Cc2ccc3c(c2)OCCO3)C2CCCC2)no1	-6.144	6.005	-45.87
CCOC(=O)Cn1ccc(NC(=O)Cc2ccccc2F)n1	-0.4045	-2.604	-5.547
O=C(c1ccc(Cl)cc1)N1CC2(CCNC2)OCc2ccccc21 (stereo not shown)	-8.384	5	-1.482
CCOc1cccc(CNC(=O)CN2CCC3(CCOC3)C2)c1 (stereo not shown)	-2.855	1.241	-16.9
O[C@@H]1CCN(CC2CCOC2)[C@H]1Cc1ccccc1 (stereo partly shown)	-3.585	-	-5.202
CN(C)C(CNC(=O)c1cc2c([nH]c1=O)CCCC2=O)c1ccsc1 (stereo not shown)	-0.6803	7.757	-3.117
CCn1nccc1CNC(=O)CCC1CCCC1	1.577	0.5741	-5.481
Cc1noc(C2CCCN(C(=O)c3cc(-c4ccccc4)on3)C2)n1 (stereo not shown)	4.176	-0.2427	13.71
Cc1cc(C(=O)N2CCN(c3nc4ccccc4s3)CC2)no1	-0.8223	3.39	7.073
CC(C)NC(=O)NCCCc1cccc(F)c1	1.876	-4.37	-7.483
CCCc1cncnc1N1CCC(NCc2ccncc2)CC1	-4.113	-3.548	-8.409
CC(=O)NCC1CCN(c2ccnc3ccc(Br)cc23)CC1	-0.6353	6.349	1.028
COc1ccccc1C1CNC(=O)c2nc(-c3cnn(C)c3)[nH]c2C1 (stereo not shown)	-2.554	7.036	-7.73
COc1cccc(S(=O)(=O)CCN2CCCN(C(C)=O)CC2)c1	5.151	13.39	-12.04
CCOc1ccc2c(c1)C=C(C(=O)NC(C)Cn1cccn1)CO2 (stereo not shown)	-3.191	-8.264	12.54
Cc1ccc(C(NCC(=O)N2CCNC(=O)C2)c2ccccc2)cc1 (stereo not shown)	0.2571	2.689	6.572
COc1ccc(CCN2CC(n3nc(C)cc3C)C2)cc1	3.118	0.3817	4.869
CCn1ncc2c1CCCC2NCc1cc(Cl)c(OC)c(OC)c1 (stereo not shown)	2.439	1.028	-8.235

5 of the entries, repeated:

* O=C(NCc1cccnc1)c1nc2c(s1)CCCN2C(=O)C1CC1 : B: -1.485%; C: -27.97%
* N#Cc1ccccc1C(=O)N1C[C@H]2CC[C@@H]1CN(c1ncccn1)C2 : A: -2.971%; B: -1.327%; C: 12.37%
* COc1ccc(CN2C[C@@H]3OCCN(CCN4CCCC4)[C@@H]3C2)cc1 : A: -1.91%; B: -37.93%; C: 8.755%
* CCCc1cncnc1N1CCC(NCc2ccncc2)CC1 : A: -4.113%; B: -3.548%; C: -8.409%
* CC(=O)c1c(F)cccc1N1CCC(C(N)=O)CC1 : A: -2.828%; B: 4%; C: -2.392%